In PubChem BioAssay AID200 (DTP/NCI, 2004):
The list shows only some results of the screen, not a fair sample: it gathers tests that were run many times, whatever their T/C, doses with no T/C, and many T/C values between a quarter and a half above the control. Other doses and runs of a compound stand elsewhere. T/C gives the treated animals as a percentage of the vehicle group. Some doses have a count of surviving animals in place of a T/C: the source files T/C as zero there, which appears to mark a toxic dose or a test without result, not a measured value. Some doses without a T/C left all or most animals alive at the check, yet need not have been tolerated: survival well below the control is almost never listed, so the zero probably covers shortened survival too. Survivors were counted at the toxicity check, usually on the fifth day, unless a day is given; later deaths do not show. Schedule codes are those of the source, read here as Q, the interval in days (D) or hours (H), X, the number of doses. Some doses were run more than once; the values are given in rising order. Where survival is the endpoint, this PubChem deposit counts one and a half times the control or more as active, and values a quarter to a half above the control carry no call in these data; other NCI protocols may use other cut-offs. Some T/C values are followed by the survivors on the day toxicity was checked, most often the fifth; where none is given, no animal had died by that day. Marks such as (2×) stand for listed records that agree.

System: B6C3F1 mice, B16 melanoma ip, median survival T/C
Assay: NCI In Vivo Anticancer Drug Screen. Data for tumor model B16 Melanoma (intraperitoneal) in B6C3F1 mice
Conditions: T/C endpoint: median survival time, schedule: Q01DX009 (ip), higher T/C = longer survival
Procedure, shortened: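 Mice bearing transplanted tumor were dosed with compound or vehicle, and survival was recorded. Activity is expressed as the treated-group measurement (T) divided by the vehicle control measurement (C).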

[1] = dose: 100.0 mg/kg/injection, vehicle: saline
[2] = dose: 100.0 mg/kg/injection, vehicle: saline with Tween-80
[3] = dose: 200.0 mg/kg/injection, vehicle: saline with Tween-80
[4] = dose: 400.0 mg/kg/injection, vehicle: saline with Tween-80
[5] = dose: 30.0 mg/kg/injection, vehicle: Klucel (hydroxypropylcellulose) (HPC)
[6] = dose: 60.0 mg/kg/injection, vehicle: Klucel (hydroxypropylcellulose) (HPC)

Question: Which T/C (dose: 50.0 mg/kg/injection, vehicle: saline) does the source give for CCN(CC)CCCC(C)Nc1c2ccc(C)cc2nc2ccc(OC)cc12 (stereo not drawn) here?
Answer: The T/C was 130 % of control.

Question: What about the survivor count [1] of the same molecule?
Answer: The survivor count was 6 of 10.

Question: How did the survivor count [2] turn out when ClCc1ccc2ccccc2n1 was run?
Answer: The survivor count was 10 of 10.

Question: And the survivor count [3]?
Answer: Its survivor count is 10 of 10.

Question: What about the survivor count [4] of the same molecule?
Answer: Its survivor count is 0 of 10.

Question: Which T/C (dose: 800.0 mg/kg/injection, vehicle: saline) does the source give for Nc1ncnc2c1ncn2C1OC(COP(=O)(O)O)C(O)C1O (stereo not drawn) here?
Answer: Its T/C is 129 % of control.

Question: And the survivor count (dose: 1600.0 mg/kg/injection, vehicle: saline)?
Answer: Its survivor count is 10 of 10.

Question: What does the source list for S=c1nc[nH]c2nc[nH]c12?
Answer: T/C (dose: 15.0 mg/kg/injection, vehicle: Klucel (hydroxypropylcellulose) (HPC)): 90 [9 of 10 alive], 101, 103, 107, 110, 113 % of control; T/C [5]: 98, 103, 110 [9 of 10 alive], 114, 115 % of control; survivor count [5]: 10 of 10; survivor count (dose: 50.0 mg/kg/injection, vehicle: Klucel (hydroxypropylcellulose) (HPC)): 10 of 10; T/C [6]: 88, 93 [9 of 10 alive], 105 % of control; survivor count [6]: 10 of 10; survivor count (dose: 100.0 mg/kg/injection, vehicle: Klucel (hydroxypropylcellulose) (HPC)): 10 of 10; survivor count (dose: 120.0 mg/kg/injection, vehicle: Klucel (hydroxypropylcellulose) (HPC)): 10 of 10; survivor count (dose: 200.0 mg/kg/injection, vehicle: Klucel (hydroxypropylcellulose) (HPC)): 10 of 10; survivor count (dose: 240.0 mg/kg/injection, vehicle: Klucel (hydroxypropylcellulose) (HPC)): 9 of 10 and 10 of 10

Question: With Cc1ccc(C(=O)NC2C(=O)NC(C(C)C)C(=O)N3CCCC3C(=O)N(C)CC(=O)N(C)C(C(C)C)C(=O)OC2C)c2c1Oc1c(c(C(=O)NC3C(=O)NC(C(C)C)C(=O)N4CCCC4C(=O)N(C)CC(=O)N(C)C(C(C)C)C(=O)OC3C)c3nc(-c4ccccc4)c(=O)oc3c1C)N2 (stereo not drawn) as the molecule, how does the T/C (dose: 0.12 mg/kg/injection, vehicle: water) read?
Answer: Its T/C is 125 % of control.

Question: What about the T/C (dose: 0.25 mg/kg/injection, vehicle: water) of the same molecule?
Answer: The T/C was 144 % of control.

Question: And the survivor count (dose: 1.0 mg/kg/injection, vehicle: water)?
Answer: The survivor count was 10 of 10.

Question: What about the survivor count (dose: 2.0 mg/kg/injection, vehicle: water) of the same molecule?
Answer: The survivor count was 0 of 10.

Question: Which results are given for CN(C)c1nc(N(C)C)nc(N(C)C)n1?
Answer: T/C (dose: 25.0 mg/kg/injection, vehicle: saline with Tween-80): 96 (2×), 97, 99, 101, 102, 115 % of control; T/C (dose: 50.0 mg/kg/injection, vehicle: saline with Tween-80): 100, 101, 102 [9 of 10 alive], 104 (2×), 108, 111 % of control; T/C [2]: 91 [9 of 10 alive], 101, 103 [9 of 10 alive], 104, 105, 108 [9 of 10 alive], 125 % of control; T/C [3]: 86 % of control [9 of 10 alive]; survivor count [3]: 8 of 10, 9 of 10, 10 of 10; survivor count [4]: 1 of 10, 2 of 10, 3 of 10, 4 of 10, 7 of 10

Question: Which survivor count (dose: 600.0 mg/kg/injection, vehicle: saline) does the source give for O=CC(CO)CC(C=O)n1cnc2c(=O)[nH]cnc21 (stereo not drawn) here?
Answer: Its survivor count is 4 of 10.

Question: With COC(=O)[C@@H]1c2cc3c(c(O)c2[C@@H](OC)C[C@@]1(C)O)C(=O)c1c(O)cc2c(c1C3=O)OC1O[C@@]2(C)[C@H](O)[C@@H](N(C)C)[C@@H]1O as the molecule, how does the survivor count [1] read?
Answer: Its survivor count is 3 of 10.

Question: And the survivor count (dose: 200.0 mg/kg/injection, vehicle: saline)?
Answer: Its survivor count is 1 of 10.

Question: And the survivor count (dose: 400.0 mg/kg/injection, vehicle: saline)?
Answer: The survivor count was 0 of 10.

Question: With CCCCOc1ccc(C(=O)SCCCN=C(N)N)cc1 as the molecule, how does the survivor count (dose: 12.5 mg/kg/injection, vehicle: suspension in saline) read?
Answer: The survivor count was 10 of 10.

Question: What about the survivor count (dose: 50.0 mg/kg/injection, vehicle: suspension in saline) of the same molecule?
Answer: The survivor count was 10 of 10.
